The data set is described as follows: general procedure: solution-phase peptide synthesis; HATU, DIPEA.
Setting [1] is: late stage modification step, HCl salt.

Strings that start with PEPTIDE1 are HELM notation: dots part the residues, brackets hold end groups and non-standard residues.

On to Boc-GGG-AcN, for which the step yield (coupling step) is listed as 66%. For the setting “coupling step”, Boc-GGG-AepicN registered a step yield of 69%. For PEPTIDE1{G.G.G.A.[cN]}$$$$V2.0, under setting [1], the step yield worked out at 52%. Same read-out and setting: then PEPTIDE1{G.G.G.A.[epicN]}$$$$V2.0, with 98%. For the substance “PEPTIDE1{[Fmoc].G.G.G.F.[epicQ]}$$$$V2.0”, the step yield (coupling step) stood at 61% yield.

Source of the values: paper PMC12117711 (Chemical Science, 2025).
